Data as given in PubChem BioAssay AID1224826 (NIAID, 2016).
The whole screen tested about 17,000 reagents; shown is a part drawn at random. In the full data, about 1,110 (6.6%) were called active. 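Active means lowered or raised reporter signal; replicate intensities are raw and not normalised per plate.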 Not all columns of the deposit are shown.

- Assay: 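Knock-downs that raise or lower Tnf reporter signal after endotoxin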 (primary screen)
- Cells: RAW264.7 G9 macrophages from mouse bearing reporters for p65 (GFP) and the Tnf promoter (mCherry)
- Knock-down reagent: siRNA pool against mouse genes, 100 nM
- Duration: 16 h of LPS stimulation, after 2 days of siRNA transfection
- Conditions: bacterial lipopolysaccharide (Salmonella minnesota R595), 10 ng/ml
- Read-out: 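Nuclear mCherry signal of the Tnf promoter reporter measured by imaging after background removal, scaled to each plate median and turned into robust z-scores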
- Reading the numbers: Tnf reporter robust z-score: higher = stronger Tnf promoter reporter signal after LPS
- Rule for the call: 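Called active when robust z-score is at most -1.3, matching the median of the Tlr4 knock-down control, or over 3; control wells and wells with under 50 cells never active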
- Calls: active = Tnf reporter clearly lowered or raised; inactive = no clear change in Tnf reporter

target	Tnf reporter robust z-score	fewer than 50 cells in well	Outcome
Cldn11	-0.37	enough cells in well	inactive
BC006965	-0.4	enough cells in well	inactive
Zfp346	2.32	enough cells in well	inactive
Adgb	1.49	enough cells in well	inactive
Tas2r105	0.53	enough cells in well	inactive
Kif24	0.6	enough cells in well	inactive
Tsga8	-0.26	enough cells in well	inactive
Plekhb2	0.31	enough cells in well	inactive
Hmces	-0.88	enough cells in well	inactive
Cptp	-0.28	enough cells in well	inactive
Slc24a5	-0.97	enough cells in well	inactive
Ttc39c		fewer than 50 cells per well; well left out of calls	inactive
Reep1		fewer than 50 cells per well; well left out of calls	inactive
Eef1b2	-0.39	enough cells in well	inactive
Hnrnpdl	1.69	enough cells in well	inactive
Trp53rka	0.77	enough cells in well	inactive
Airn	0.4	enough cells in well	inactive
Tyrobp	-0.79	enough cells in well	inactive
Tpgs1		fewer than 50 cells per well; well left out of calls	inactive
Lrrfip1	-0.09	enough cells in well	inactive
Fabp2	-0.01	enough cells in well	inactive
Prl2c3	0	enough cells in well	inactive
Usf2	-0.41	enough cells in well	inactive
Tdrd1	4.61	enough cells in well	active
Bdh1	-1.32	enough cells in well	active
Sec61g	-1.14	enough cells in well	inactive
Gng3	-0.37	enough cells in well	inactive
Ubiad1	-1.81	enough cells in well	active
Emcn	-1.47	enough cells in well	active
AU014748	-0.27	enough cells in well	inactive
Ntng1	0.51	enough cells in well	inactive
Clvs2	0.3	enough cells in well	inactive
Brd4	-1.19	enough cells in well	inactive
Foxf1	0.74	enough cells in well	inactive
Slc6a14		fewer than 50 cells per well; well left out of calls	inactive
Plekhg6	-0.97	enough cells in well	inactive
Ticam2	-0.83	enough cells in well	inactive
Sult1e1	0.34	enough cells in well	inactive
Eln	0.65	enough cells in well	inactive
Uqcrc1	0.64	enough cells in well	inactive
Stk10		fewer than 50 cells per well; well left out of calls	inactive
Adck2	-0.18	enough cells in well	inactive
Taf5	-0.11	enough cells in well	inactive
Spn	-0.06	enough cells in well	inactive
Chdh	-0.87	enough cells in well	inactive
Krt14	0.44	enough cells in well	inactive
Wars2	0.92	enough cells in well	inactive
Cnnm2	-0.33	enough cells in well	inactive
Gstz1	0.66	enough cells in well	inactive
Atp5f1b	1.8	enough cells in well	inactive
Or2at4		fewer than 50 cells per well; well left out of calls	inactive
Naxd	-0.61	enough cells in well	inactive
Or5g25	0.83	enough cells in well	inactive
Ccdc77	-0.72	enough cells in well	inactive
Uba5	-0.95	enough cells in well	inactive
Or52e3	-1.24	enough cells in well	inactive
Morn2	0.67	enough cells in well	inactive
Krt71	-1.57	enough cells in well	active
Phlda1		fewer than 50 cells per well; well left out of calls	inactive
Dnd1	-0.54	enough cells in well	inactive
Hspa4l	-0.69	enough cells in well	inactive
Or2y1d	-1.26	enough cells in well	inactive
Eif3d	-1.01	enough cells in well	inactive
Ube2g1	0.91	enough cells in well	inactive
Scn1a	-0.14	enough cells in well	inactive
Adam17	1.28	enough cells in well	inactive
Fam131b	-0.56	enough cells in well	inactive
Ska2	-0.27	enough cells in well	inactive
Adgrg3	-0.1	enough cells in well	inactive
Cpne3	-0.34	enough cells in well	inactive
Serpina1e	-0.1	enough cells in well	inactive
Rfx6	0.4	enough cells in well	inactive
Brd2	2.1	enough cells in well	inactive
H2al1m		fewer than 50 cells per well; well left out of calls	inactive
Hdgf	-0.26	enough cells in well	inactive

Entries listed so far whose target name begins with T or t (9):
target	Tnf reporter robust z-score	fewer than 50 cells in well	Outcome
Tas2r105	0.53	enough cells in well	inactive
Tsga8	-0.26	enough cells in well	inactive
Ttc39c		fewer than 50 cells per well; well left out of calls	inactive
Trp53rka	0.77	enough cells in well	inactive
Tyrobp	-0.79	enough cells in well	inactive
Tpgs1		fewer than 50 cells per well; well left out of calls	inactive
Tdrd1	4.61	enough cells in well	active
Ticam2	-0.83	enough cells in well	inactive
Taf5	-0.11	enough cells in well	inactive
